PMC9278747

The chains behind the UniProt entries cited, without tags or fusion partners. Where a name states a change or a piece, a line headed by the entry shows the natural chain unless it says otherwise.
UniProt Q03823: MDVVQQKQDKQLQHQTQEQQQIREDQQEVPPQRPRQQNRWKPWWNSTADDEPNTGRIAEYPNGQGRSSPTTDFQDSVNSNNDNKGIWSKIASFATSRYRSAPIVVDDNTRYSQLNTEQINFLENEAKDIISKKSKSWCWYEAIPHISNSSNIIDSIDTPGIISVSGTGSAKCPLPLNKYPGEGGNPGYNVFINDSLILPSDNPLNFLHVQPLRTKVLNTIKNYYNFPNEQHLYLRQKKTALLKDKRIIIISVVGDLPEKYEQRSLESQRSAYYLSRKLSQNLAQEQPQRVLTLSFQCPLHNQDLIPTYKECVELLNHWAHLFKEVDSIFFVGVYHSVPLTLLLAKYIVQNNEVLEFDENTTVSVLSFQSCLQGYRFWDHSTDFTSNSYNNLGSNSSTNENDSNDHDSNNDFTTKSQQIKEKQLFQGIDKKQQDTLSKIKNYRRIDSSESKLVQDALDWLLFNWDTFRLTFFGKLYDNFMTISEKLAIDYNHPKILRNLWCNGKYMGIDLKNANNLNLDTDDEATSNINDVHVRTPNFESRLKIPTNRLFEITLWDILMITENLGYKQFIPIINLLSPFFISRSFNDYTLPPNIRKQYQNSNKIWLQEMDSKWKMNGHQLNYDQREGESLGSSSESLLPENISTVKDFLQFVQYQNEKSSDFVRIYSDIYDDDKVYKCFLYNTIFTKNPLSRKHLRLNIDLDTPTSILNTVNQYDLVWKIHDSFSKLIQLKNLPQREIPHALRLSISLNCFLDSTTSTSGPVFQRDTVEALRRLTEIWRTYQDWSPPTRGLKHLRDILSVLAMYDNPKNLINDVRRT

Experiments:
[1] = molecular target: OtUBD resin (Cys-OtUBD or Cys-His6-OtUBD covalently linked to SulfoLink resin) (Orientia tsutsugamushi) (UniProt B3CVM3); assay: affinity purification with mass spectrometry; OtUBD pulldown samples of yeast, LC-MS/MS, GG-peptide assignment validated by hand; native or denaturing condition not told; only the target purified
[2] = molecular target: OtUBD resin (Cys-OtUBD or Cys-His6-OtUBD covalently linked to SulfoLink resin) (Orientia tsutsugamushi) (UniProt B3CVM3); assay: affinity purification with mass spectrometry; OtUBD resin pulldowns of urea-denatured yeast lysates (the 'ubiquitylome'), low pH elution, trypsin digestion, LC-MS/MS; control SulfoLink resin without OtUBD in parallel; only the target purified

Molecule: YMR160W with a GG remnant on T534 (nonlysine ubiquitylation site) (from UniProt Q03823 1-816; P0CG63 1-76)
- binding [1]: binds

B1: Rub1 (yeast Nedd8) (protein, UniProt Q03919 1-77)
chain: MIVKVKTLTGKEISVELKESDLVYHIKELLEEKEGIPPSQQRLIFQGKQIDDKLTVTDAHLVEGMQLHLVLTLRGGN
- binding [2]: binds

B2: Cdc53 (yeast cullin) as found in the OtUBD-defined ubiquitylome (protein, UniProt Q12018 1-815)
chain: MSETLPRSDDLEATWNFIEPGINQILGNEKNQASTSKRVYKILSPTMYMEVYTAIYNYCVNKSRSSGHFSTDSRTGQSTILVGSEIYEKLKNYLKNYILNFKQSNSETFLQFYVKRWKRFTIGAIFLNHAFDYMNRYWVQKERSDGKRHIFDVNTLCLMTWKEVMFDPSKDVLINELLDQVTLGREGQIIQRSNISTAIKSLVALGIDPQDLKKLNLNVYIQVFEKPFLKKTQEYYTQYTNDYLEKHSVTEYIFEAHEIIKREEKAMTIYWDDHTKKPLSMALNKVLITDHIEKLENEFVVLLDARDIEKITSLYALIRRDFTLIPRMASVFENYVKKTGENEISSLLAMHKHNIMKNENANPKKLALMTAHSLSPKDYIKKLLEVHDIFSKIFNESFPDDIPLAKALDNACGAFININEFALPAGSPKSATSKTSEMLAKYSDILLKKATKPEVASDMSDEDIITIFKYLTDKDAFETHYRRLFAKRLIHGTSTSAEDEENIIQRLQAANSMEYTGKITKMFQDIRLSKILEDDFAVALKNEPDYSKAKYPDLQPFVLAENMWPFSYQEVEFKLPKELVPSHEKLKESYSQKHNGRILKWLWPLCRGELKADIGKPGRMPFNFTVTLFQMAILLLYNDADVLTLENIQEGTSLTIQHIAAAMVPFIKFKLIQQVPPGLDALVKPETQFKLSRPYKALKTNINFASGVKNDILQSLSGGGHDNHGNKLGNKRLTEDERIEKELNTERQIFLEACIVRIMKAKRNLPHTTLVNECIAQSHQRFNAKVSMVKRAIDSLIQKGYLQRGDDGESYAYLA
- binding [2]: binds

B3: Rtt101 (yeast cullin) as found in the OtUBD-defined ubiquitylome (protein, UniProt P47050 1-842)
chain: MINESVSKREGFHESISRETSASNALGLYNKFNDERNPRYRTMIAELHEFFHLTLAETITETDVKELECNKEKAAKFRKLMPKMLNNCRELTQRKSYIPYNSEFNGNDEKQKKFQLLHQHQIVLSFQEFCDELAKLIIDAHVLSFLTRCDYSYEIIPKNWTSFYKLFQYVMGAVGPIISYVPVNYPMIRKELGFETLTIFQYYDSKLFECMKSHFGREFSTLVSATIHHYIHMFPITNTMLEKEVPMLRIMSNCNFSIEGLSPKDFYMKTLRQYYCEESNLRPRLETFKNFKVLLTRNALLASLFSPEWVSDANDLFISHLLLNKKSISEYIEIGKDTYDEEKERYFKTETHFSLLMFRNAFEAKNMLSKFKEFCDDAVSEKLKAAYGSNHDTERLFDEVVQLANVDHLKIYSDSIEYHLCNLLGSTSKAIEQYVKYFESHLFIIVRKIKTTKKDLPRDMKIKYLNENLPILRLKFVNLPTFPNFFERSIFRKTILQSDQNSSFIKDILPVYKDSLMELFKQRIITNVSQEDEMRYRDQYQPYLSQFFQPVEVMADLRIKYASFLSFYENIEAAVKFGKTYNENNSKSFFPLIFDRERIPKVFQQSNEVKKNFVLPQEMDDTWNQFLRNYHEQNKVEDSDASKKELYPMWNLHHCEVESPYIIQDGTNLIFELTLFQTCVLTLFNESDHLTLQVISEQTKLAYKDLALVLKSFCNYKILTRDIDNTYSINESFKPDMKKVKNGKLRVVLPRTASLQSSNTGGERTSSAHHEGSNSQWTQELLKACITRSVKSERNGLDYDHLFETVKQQIKGFSVGEFKDALAKLLRDKFITRDESTATYKY
- binding [2]: binds

B4: Cul3 (yeast cullin) as found in the OtUBD-defined ubiquitylome (protein, UniProt P53202 1-744)
chain: MITNKKIKISVPEKLGLSEESFEESWETVKYAIDHIYSDDMADLSFEQVYKTIYTIVLNKKGPILYNRLKDYLIQKLALLRETIVKDNTHDYEFLGTMARLWEVQCHCFKITGDLMMYMDKVYCKPNRCMEVYDMCLDLFRIEILQKCSSSLISALISDIERIRNLGSVDSEHTSLWKVLIGMMETLHDNRDSFFLTDFEPVLISATEEYYNKAIDIELLTPIESLEKIRKLRQFESMLDSSFLNVDSHNKLKTVLENVLIWGKLSDIIEDLTHEAMVISNGKLLQEIYDLSSEEKYRVTVIESIKSYINKNAINIPFNEGNRKKGQNAITWSSEIVELYRSQHSFLESIDFGSVRLNNLTGDVSNAILGDVFSMYFSKEGALPSEYLSTYVDHCMKRTKEKDAEIVKIKQDLLDSTKLIGLLTEKDIFEKIYKKQLSRRLLQQRSLVEIEKWMVQMIKKVLGTFFTSKLEIMLRDISLSSEMYQAFQHSTINSIEYLSFAPQVLTRTSWPFQSTNPIDEGISLPPRMSQILAGFEGYYSLKYKERVLKWAHHLSVIEIGCQFNSGYYEISFSVYAGVIFLLFEDYEELTLGEIYELTHIPIDDVKSLVMSMSTIPRCKILKKSSSSGNMKFSVNYFFSSPNRKVKVPVIACPLPSQKSDNLATASSVDTYDNEIVMELSAIIVRIMKTEGKLSHQQLLERTTKRTQSRLSLTPSILKRSIQLLIEKEYIQRNADDPSYYHYLS
- binding [2]: binds

These are yes or no findings as the source states them, for the method shown. In cells and extracts the contact can be indirect. A yes stands for co-enrichment or nearness to the bait. Other partners may have been found.
